Reference: publication PMC6708219
Results are given in words; binding and its absence hold for the method and conditions named. Binding seen in cells or lysates may run through a third protein. Some results given as binding are weak or reduced against the parent protein; the word gives no strength. Blank lines part the entries; values can stand above or below the binder they belong to.

By UniProt entry, the sequences of proteins in these tests, tags left out. Residues count along the entry.
UniProt P21860, residues 20-1342: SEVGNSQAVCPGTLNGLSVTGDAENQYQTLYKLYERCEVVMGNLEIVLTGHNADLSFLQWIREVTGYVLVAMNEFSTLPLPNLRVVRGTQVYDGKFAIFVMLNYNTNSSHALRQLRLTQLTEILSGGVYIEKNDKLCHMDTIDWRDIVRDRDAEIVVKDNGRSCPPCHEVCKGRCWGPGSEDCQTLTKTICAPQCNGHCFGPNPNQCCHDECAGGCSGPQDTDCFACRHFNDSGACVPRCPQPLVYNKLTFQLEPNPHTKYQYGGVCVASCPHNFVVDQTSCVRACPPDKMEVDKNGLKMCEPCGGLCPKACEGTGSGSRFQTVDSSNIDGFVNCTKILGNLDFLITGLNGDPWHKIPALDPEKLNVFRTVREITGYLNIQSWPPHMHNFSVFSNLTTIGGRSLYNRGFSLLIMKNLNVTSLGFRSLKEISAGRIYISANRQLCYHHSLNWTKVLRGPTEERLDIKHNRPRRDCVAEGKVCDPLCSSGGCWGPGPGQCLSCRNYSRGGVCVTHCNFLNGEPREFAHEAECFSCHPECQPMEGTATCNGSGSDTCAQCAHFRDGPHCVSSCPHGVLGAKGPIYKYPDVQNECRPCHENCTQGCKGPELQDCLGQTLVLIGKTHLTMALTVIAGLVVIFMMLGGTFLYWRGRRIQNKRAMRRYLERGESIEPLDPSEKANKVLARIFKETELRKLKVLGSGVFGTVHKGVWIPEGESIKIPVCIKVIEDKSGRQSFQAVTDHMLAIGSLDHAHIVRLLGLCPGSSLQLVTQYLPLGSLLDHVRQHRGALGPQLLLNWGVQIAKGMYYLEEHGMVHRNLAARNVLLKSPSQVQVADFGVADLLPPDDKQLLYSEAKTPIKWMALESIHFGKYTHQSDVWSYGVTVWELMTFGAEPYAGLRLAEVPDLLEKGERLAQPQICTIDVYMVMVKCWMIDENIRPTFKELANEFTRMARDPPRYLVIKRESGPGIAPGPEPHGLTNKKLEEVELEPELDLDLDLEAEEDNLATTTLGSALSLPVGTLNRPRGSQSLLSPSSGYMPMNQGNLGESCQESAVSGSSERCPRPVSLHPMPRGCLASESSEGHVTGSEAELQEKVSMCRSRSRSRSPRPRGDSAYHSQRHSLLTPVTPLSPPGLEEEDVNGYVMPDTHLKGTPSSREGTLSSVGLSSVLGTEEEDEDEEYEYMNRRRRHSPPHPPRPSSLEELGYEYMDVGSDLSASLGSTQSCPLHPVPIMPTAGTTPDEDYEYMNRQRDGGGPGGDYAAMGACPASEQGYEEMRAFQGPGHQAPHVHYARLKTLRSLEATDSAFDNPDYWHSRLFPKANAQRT

Columns and labels:
[1] = target: TRAIL-R2/DR5 (human (endogenous in BxPC3)), O14763; assay: co-IP; BxPC3 cells incubated with 9F7-F11 (24 h to 120 h); 2 mg lysate precipitated overnight at 4 C with Dynabeads cross-linked with anti-DR5 antibody D4E7, ten washes in CHAPS buffer; western blot for caspase-8 and FADD; conditions: remark: other sources report otherwise
[2] = target: HER3 (ErbB3) receptor (human (endogenous in BxPC3)) (UniProt P21860); assay: co-IP; BxPC3 cells incubated with medium, NRG1 (100 ng/ml) and/or 9F7-F11 (50 ug/ml) for various times; 2 mg lysate in CHAPS buffer precipitated with anti-HER3 antibody 2F12 (C-terminal tail) and Dynabeads at 4 C; western blot for ITCH and USP8

binding [1]: binds
B1: pro-caspase 8, Q14790 1-479 (enzyme)
chain: MDFSRNLYDIGEQLDSEDLASLKFLSLDYIPQRKQEPIKDALMLFQRLQEKRMLEESNLSFLKELLFRINRLDLLITYLNTRKEEMERELQTPGRAQISAYRVMLYQISEEVSRSELRSFKFLLQEEISKCKLDDDMNLLDIFIEMEKRVILGEGKLDILKRVCAQINKSLLKIINDYEEFSKERSSSLEGSPDEFSNGEELCGVMTISDSPREQDSESQTLDKVYQMKSKPRGYCLIINNHNFAKAREKVPKLHSIRDRNGTHLDAGALTTTFEELHFEIKPHDDCTVEQIYEILKIYQLMDHSNMDCFICCILSHGDKGIIYGTDGQEAPIYELTSQFTGLKCPSLAGKPKVFFIQACQGDNYQKGIPVETDSEEQPYLEMDLSSPQTRYIPDEADFLLGMATVNNCVSYRNPAEGTWYIQSLCQSLRERCPRGDDILTILTEVNYEVSNKDDKKNMGKQMPQPTFTLRKKLVFPSD

binding [2]: binds
B2: Ubiquitin-specific peptidase 8 (USP8) (enzyme, UniProt P40818 1-1118)
chain: MPAVASVPKELYLSSSLKDLNKKTEVKPEKISTKSYVHSALKIFKTAEECRLDRDEERAYVLYMKYVTVYNLIKKRPDFKQQQDYFHSILGPGNIKKAVEEAERLSESLKLRYEEAEVRKKLEEKDRQEEAQRLQQKRQETGREDGGTLAKGSLENVLDSKDKTQKSNGEKNEKCETKEKGAITAKELYTMMTDKNISLIIMDARRMQDYQDSCILHSLSVPEEAISPGVTASWIEAHLPDDSKDTWKKRGNVEYVVLLDWFSSAKDLQIGTTLRSLKDALFKWESKTVLRNEPLVLEGGYENWLLCYPQYTTNAKVTPPPRRQNEEVSISLDFTYPSLEESIPSKPAAQTPPASIEVDENIELISGQNERMGPLNISTPVEPVAASKSDVSPIIQPVPSIKNVPQIDRTKKPAVKLPEEHRIKSESTNHEQQSPQSGKVIPDRSTKPVVFSPTLMLTDEEKARIHAETALLMEKNKQEKELRERQQEEQKEKLRKEEQEQKAKKKQEAEENEITEKQQKAKEEMEKKESEQAKKEDKETSAKRGKEITGVKRQSKSEHETSDAKKSVEDRGKRCPTPEIQKKSTGDVPHTSVTGDSGSGKPFKIKGQPESGILRTGTFREDTDDTERNKAQREPLTRARSEEMGRIVPGLPSGWAKFLDPITGTFRYYHSPTNTVHMYPPEMAPSSAPPSTPPTHKAKPQIPAERDREPSKLKRSYSSPDITQAIQEEEKRKPTVTPTVNRENKPTCYPKAEISRLSASQIRNLNPVFGGSGPALTGLRNLGNTCYMNSILQCLCNAPHLADYFNRNCYQDDINRSNLLGHKGEVAEEFGIIMKALWTGQYRYISPKDFKITIGKINDQFAGYSQQDSQELLLFLMDGLHEDLNKADNRKRYKEENNDHLDDFKAAEHAWQKHKQLNESIIVALFQGQFKSTVQCLTCHKKSRTFEAFMYLSLPLASTSKCTLQDCLRLFSKEEKLTDNNRFYCSHCRARRDSLKKIEIWKLPPVLLVHLKRFSYDGRWKQKLQTSVDFPLENLDLSQYVIGPKNNLKKYNLFSVSNHYGGLDGGHYTAYCKNAARQRWFKFDDHEVSDISVSSVKSSAAYILFYTSLGPRVTDVAT
